Paper PMC5955111

Amino acid sequences for entries named in this document (tags omitted). A change or cut given only in a name is not applied to a line headed by its entry.
UniProt P09874, whole entry: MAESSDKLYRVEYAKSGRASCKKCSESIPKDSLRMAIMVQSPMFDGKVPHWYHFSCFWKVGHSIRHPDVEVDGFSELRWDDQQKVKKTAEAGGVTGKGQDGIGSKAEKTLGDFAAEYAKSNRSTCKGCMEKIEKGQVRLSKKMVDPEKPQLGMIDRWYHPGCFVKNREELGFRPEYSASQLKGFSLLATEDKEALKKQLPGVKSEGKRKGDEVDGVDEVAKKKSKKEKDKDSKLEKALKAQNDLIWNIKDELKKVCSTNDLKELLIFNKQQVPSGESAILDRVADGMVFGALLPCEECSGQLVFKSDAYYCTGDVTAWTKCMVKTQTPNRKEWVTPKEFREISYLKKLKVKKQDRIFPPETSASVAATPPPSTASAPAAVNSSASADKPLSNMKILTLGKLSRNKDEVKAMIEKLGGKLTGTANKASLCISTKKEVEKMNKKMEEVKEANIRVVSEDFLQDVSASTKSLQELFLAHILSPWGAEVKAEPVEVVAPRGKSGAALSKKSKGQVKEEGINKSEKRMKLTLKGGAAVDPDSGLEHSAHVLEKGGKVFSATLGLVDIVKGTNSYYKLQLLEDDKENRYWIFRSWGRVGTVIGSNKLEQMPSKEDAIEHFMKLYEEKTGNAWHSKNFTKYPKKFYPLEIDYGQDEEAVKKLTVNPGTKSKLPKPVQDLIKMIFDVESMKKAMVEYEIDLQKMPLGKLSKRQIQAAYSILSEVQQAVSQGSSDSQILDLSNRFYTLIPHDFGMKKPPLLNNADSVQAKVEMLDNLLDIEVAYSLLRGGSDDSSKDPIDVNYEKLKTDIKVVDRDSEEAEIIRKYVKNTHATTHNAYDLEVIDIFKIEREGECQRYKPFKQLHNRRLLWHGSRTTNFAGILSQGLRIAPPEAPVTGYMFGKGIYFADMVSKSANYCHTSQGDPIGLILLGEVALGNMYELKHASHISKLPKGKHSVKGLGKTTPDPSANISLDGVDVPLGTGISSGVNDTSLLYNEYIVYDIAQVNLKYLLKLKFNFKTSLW
UniProt P67809: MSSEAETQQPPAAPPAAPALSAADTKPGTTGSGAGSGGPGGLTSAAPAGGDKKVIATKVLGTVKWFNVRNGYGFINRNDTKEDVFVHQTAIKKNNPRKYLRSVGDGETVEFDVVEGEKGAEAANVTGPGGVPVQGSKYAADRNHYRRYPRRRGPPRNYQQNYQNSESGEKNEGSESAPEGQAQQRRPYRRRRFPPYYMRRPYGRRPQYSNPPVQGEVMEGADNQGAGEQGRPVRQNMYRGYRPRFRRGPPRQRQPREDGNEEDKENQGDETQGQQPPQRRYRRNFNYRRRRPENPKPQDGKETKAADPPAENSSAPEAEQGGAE

Columns and labels:
PARP1 (human) = PARP1 (human) (UniProt P09874); assay: fluorescence anisotropy; settings: anisotropy at 25 C, recombinant protein, label: 3'-FAM on ODN1, for gel shift ODN1 also 5'-32P
YB-1 (human) [1] = biological target: YB-1 (human) (UniProt P67809); assay: fluorescence anisotropy; settings: 500 uM NAD+ without PARP1, PARP1 needed for DNA release; anisotropy at 25 C; recombinant protein; protein details: His-tag; label: 3'-FAM on ODN1, for gel shift ODN1 also 5'-32P
YB-1 + PARP1 [2] = assay: fluorescence anisotropy; settings: 500 uM NAD+, PARylation releases DNA, lag at high YB-1; anisotropy at 25 C; recombinant protein; protein details: His-tag; label: 3'-FAM on ODN1, for gel shift ODN1 also 5'-32P
YB-1 (human) [3] = biological target: YB-1 (human) (UniProt P67809); assay: EMSA; settings: no PARP1, 0-400 nM YB-1; EMSA: 37 C 10 min, 7.6% native PAGE in 25 mM Tris-borate pH 8.3 at 4 C; DNA 100 nM (anisotropy), 40 nM in Methods vs 100 nM in Figure 1B legend (EMSA); recombinant protein; protein details: His-tag; label: 3'-FAM on ODN1, for gel shift ODN1 also 5'-32P
YB-1 + PARP1 [4] = assay: EMSA; settings: after NAD+ (PARylation), free DNA accumulates with time; EMSA: 37 C 10 min, 7.6% native PAGE in 25 mM Tris-borate pH 8.3 at 4 C; DNA 100 nM (anisotropy), 40 nM in Methods vs 100 nM in Figure 1B legend (EMSA); recombinant protein; protein details: His-tag; label: 3'-FAM on ODN1, for gel shift ODN1 also 5'-32P

“GGAAGACCCTGACGTTTCCCAACTTTATCGCC / GGCGATAAAGTTGGG / AAACGTCAGGGTCTTCC [Nick (ODN1+ODN2+ODN3)]”: binds more weakly (PARP1 (human); poly(ADP-ribosyl)ated PARP1 (NAD+ added), DNA released); binds (PARP1 (human); unmodified PARP1, no NAD+); binds (YB-1 (human) [1]). “GGAAGACCCTGACGTTTCCCAACTTTATCGCC / GGCGATAAAGTTGGG / AAACGTCAGGGTCTTCC [Nick (ODN1+ODN2+ODN3)]”: binds more weakly (YB-1 + PARP1 [2]); binds (YB-1 (human) [3]); binds more weakly (YB-1 + PARP1 [4]).

For at least one entry, the source does not settle the construct or the ends of the probe. For part of these data: The comparison behind a weaker result is the experiment's own reference, which may not be listed here. For part of these data: At least one verdict rests on a figure or table, not on a statement of the authors.
